# Literature values as cited in patent US11129897B2, “Fast-acting plant-based medicinal compounds and nutritional supplements” (RECEPTOR HOLDINGS, INC., priority 2016, dated 2021).
# Settings: versus molecule without SNAC; in words; cited from earlier work
smiles,measurement,value
CC(C)c1c(C(=O)Nc2ccccc2)c(-c2ccccc2)c(-c2ccc(F)cc2)n1CC[C@@H](O)C[C@@H](O)CC(=O)O [atorvastatin],"absorption when co-administered with an N-acylated fatty amino acid (e.g., SNAC)",improved absorption
